According to paper PMC11549337:
These are yes or no findings as the source states them, for the method shown. Binding seen in cells or lysates may run through a third protein. Some results given as binding are weak or reduced against the parent protein; the word gives no strength. For part of these data: Tags and fused reporters may be left off the sequences shown. One block for each substance: values may come before it.

Sequences of proteins named here, by UniProt entry; tags and fusion partners are left off.
UniProt P58801: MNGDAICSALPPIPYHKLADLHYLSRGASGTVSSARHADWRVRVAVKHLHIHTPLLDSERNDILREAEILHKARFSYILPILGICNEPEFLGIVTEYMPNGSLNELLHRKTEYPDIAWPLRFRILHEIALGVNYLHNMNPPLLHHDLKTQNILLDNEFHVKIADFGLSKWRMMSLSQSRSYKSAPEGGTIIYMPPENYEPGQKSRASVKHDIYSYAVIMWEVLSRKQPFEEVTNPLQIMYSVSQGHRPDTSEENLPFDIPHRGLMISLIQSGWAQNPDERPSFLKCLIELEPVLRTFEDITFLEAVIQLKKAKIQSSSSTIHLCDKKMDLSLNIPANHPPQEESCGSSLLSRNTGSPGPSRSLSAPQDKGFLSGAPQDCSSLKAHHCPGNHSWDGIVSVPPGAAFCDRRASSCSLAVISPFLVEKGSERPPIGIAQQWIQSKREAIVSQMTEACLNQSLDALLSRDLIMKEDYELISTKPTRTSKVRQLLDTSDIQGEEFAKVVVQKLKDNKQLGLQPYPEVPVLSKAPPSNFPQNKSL
UniProt Q60989: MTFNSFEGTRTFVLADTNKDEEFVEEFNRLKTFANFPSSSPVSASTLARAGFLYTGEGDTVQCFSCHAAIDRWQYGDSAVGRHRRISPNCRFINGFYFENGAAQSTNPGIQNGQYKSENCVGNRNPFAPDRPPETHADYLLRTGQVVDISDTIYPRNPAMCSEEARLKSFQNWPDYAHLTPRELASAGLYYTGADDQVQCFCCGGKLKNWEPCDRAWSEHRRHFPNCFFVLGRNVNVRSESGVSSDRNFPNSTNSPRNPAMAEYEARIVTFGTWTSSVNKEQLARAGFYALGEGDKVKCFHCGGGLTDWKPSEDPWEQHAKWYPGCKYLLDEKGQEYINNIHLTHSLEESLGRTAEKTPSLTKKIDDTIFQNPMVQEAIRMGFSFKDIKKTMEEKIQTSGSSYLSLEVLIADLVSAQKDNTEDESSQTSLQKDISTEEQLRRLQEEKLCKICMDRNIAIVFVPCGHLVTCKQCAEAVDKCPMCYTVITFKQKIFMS

Assays:
FLAG-YOD1 (mouse) = biological target: T1, FLAG-YOD1 (mouse) (UniProt Q8CB27); test: co-IP; NIH/3T3 cells transfected with GFP-RIPK2 and FLAG-YOD1 plasmids (full length or truncated) for 24 h, in the truncation panel MG132 20 μM for 6 h before lysis; anti-FLAG immunoprecipitation, western blot
T1 sequence: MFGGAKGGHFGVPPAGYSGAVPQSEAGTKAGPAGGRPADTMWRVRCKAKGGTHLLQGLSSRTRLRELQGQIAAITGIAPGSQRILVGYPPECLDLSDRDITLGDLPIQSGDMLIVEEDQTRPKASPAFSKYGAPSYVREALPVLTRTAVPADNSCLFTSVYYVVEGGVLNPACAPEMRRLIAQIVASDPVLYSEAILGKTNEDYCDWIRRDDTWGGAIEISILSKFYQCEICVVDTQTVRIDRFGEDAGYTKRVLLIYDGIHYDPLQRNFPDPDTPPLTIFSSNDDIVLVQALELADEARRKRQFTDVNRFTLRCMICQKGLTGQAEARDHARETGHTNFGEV

[1] = biological target: receptor-interacting serine/threonine kinase 2 (RIPK2) (mouse (endogenous in RAW264.7 cells and BMDMs)) (UniProt P58801); test: co-IP; anti-RIPK2 antibody immunoprecipitation from BMDMs of Yod1+/+ and Yod1-/- mice stimulated with L18-MDP (200 ng/ml) for the indicated time points, western blot; endogenous proteins
[2] = biological target: T2, YOD1 (mouse (endogenous in RAW264.7 cells and BMDMs)) (UniProt Q8CB27); test: co-IP; anti-YOD1 antibody immunoprecipitation from BMDM lysate (RIPA buffer), western blot; endogenous proteins
T2 sequence: T1 sequence

binding (FLAG-YOD1 (mouse)): binds
Substance: GFP-RIPK2 (from UniProt P58801 1-539)

binding [1]: binds
Substance: XIAP (from UniProt Q60989 1-496) (enzyme)

binding [2]: binds
Substance: receptor-interacting serine/threonine kinase 2 (RIPK2) (from UniProt P58801 1-539)
